± gives the standard deviation of the averaged measurements. The list shows a part of the results, in another mix than the full data. Small differences around the control level are noise.

Protein sequences, listed by entry. Tags and fused reporters are not part of them. Lines headed by an entry give the natural chain unless they say otherwise; changes in a name come on top.
UniProt P15735: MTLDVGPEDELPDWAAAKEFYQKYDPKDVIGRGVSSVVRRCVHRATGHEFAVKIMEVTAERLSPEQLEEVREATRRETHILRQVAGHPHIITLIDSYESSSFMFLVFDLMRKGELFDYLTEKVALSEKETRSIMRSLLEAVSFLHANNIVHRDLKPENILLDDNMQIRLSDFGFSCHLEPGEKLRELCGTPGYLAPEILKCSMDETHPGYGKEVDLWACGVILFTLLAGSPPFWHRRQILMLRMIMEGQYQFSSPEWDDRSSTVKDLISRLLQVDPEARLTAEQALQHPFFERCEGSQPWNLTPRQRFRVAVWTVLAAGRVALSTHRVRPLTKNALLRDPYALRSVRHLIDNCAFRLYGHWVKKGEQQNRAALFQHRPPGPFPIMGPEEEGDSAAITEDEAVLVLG
UniProt P51991: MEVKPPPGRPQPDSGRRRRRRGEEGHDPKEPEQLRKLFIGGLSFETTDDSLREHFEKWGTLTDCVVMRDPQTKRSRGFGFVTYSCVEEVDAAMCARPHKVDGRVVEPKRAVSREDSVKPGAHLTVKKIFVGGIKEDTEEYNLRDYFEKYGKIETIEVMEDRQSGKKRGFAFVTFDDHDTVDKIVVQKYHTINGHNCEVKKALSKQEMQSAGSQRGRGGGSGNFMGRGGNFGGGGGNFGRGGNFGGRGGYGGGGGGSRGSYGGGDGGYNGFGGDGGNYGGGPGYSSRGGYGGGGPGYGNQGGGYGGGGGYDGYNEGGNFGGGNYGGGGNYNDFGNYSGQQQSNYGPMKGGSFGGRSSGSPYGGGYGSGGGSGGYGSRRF
UniProt Q9H7P9: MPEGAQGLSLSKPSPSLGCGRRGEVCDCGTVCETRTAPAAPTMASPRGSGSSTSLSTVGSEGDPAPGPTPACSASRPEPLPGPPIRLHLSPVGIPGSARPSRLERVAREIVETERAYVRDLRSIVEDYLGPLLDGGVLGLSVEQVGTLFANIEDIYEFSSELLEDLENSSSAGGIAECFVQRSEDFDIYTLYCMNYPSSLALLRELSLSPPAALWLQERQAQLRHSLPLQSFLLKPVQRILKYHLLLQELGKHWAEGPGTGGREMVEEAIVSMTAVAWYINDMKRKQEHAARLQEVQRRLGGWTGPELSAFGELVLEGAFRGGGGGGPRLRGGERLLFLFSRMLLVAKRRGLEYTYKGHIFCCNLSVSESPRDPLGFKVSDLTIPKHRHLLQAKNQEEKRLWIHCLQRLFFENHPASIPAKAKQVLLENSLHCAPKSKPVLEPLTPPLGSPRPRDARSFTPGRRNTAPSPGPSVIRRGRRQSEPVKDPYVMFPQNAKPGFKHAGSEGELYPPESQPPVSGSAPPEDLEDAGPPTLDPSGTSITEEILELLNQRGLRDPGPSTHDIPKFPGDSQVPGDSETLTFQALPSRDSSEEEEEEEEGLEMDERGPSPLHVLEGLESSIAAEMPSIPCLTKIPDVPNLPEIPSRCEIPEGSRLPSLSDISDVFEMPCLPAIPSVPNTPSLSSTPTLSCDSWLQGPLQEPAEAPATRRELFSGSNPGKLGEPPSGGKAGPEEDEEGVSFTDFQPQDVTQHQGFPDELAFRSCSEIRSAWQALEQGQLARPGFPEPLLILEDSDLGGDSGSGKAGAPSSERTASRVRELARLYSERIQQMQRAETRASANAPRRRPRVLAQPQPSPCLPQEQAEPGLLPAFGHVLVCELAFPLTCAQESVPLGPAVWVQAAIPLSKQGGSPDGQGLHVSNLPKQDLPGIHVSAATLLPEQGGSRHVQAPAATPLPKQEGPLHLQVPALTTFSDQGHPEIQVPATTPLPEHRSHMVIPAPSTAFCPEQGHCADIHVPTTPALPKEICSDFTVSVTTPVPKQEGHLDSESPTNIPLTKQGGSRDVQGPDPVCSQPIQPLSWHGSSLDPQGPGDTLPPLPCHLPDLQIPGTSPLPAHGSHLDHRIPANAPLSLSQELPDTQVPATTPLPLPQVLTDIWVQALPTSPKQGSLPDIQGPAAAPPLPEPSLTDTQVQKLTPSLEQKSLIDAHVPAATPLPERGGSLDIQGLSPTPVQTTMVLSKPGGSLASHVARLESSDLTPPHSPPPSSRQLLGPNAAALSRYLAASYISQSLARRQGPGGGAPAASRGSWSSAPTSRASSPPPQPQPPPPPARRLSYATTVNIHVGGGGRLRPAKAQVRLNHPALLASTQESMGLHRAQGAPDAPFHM
UniProt Q08722, whole entry: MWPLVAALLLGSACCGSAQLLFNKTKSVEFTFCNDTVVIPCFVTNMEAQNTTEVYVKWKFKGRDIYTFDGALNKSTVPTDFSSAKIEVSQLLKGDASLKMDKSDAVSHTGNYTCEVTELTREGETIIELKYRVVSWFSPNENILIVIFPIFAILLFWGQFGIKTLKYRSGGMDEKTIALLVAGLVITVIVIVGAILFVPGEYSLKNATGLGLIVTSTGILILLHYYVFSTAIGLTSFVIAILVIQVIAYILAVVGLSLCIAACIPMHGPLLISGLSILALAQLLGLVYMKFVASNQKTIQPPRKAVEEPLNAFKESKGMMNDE
UniProt Q9Y580: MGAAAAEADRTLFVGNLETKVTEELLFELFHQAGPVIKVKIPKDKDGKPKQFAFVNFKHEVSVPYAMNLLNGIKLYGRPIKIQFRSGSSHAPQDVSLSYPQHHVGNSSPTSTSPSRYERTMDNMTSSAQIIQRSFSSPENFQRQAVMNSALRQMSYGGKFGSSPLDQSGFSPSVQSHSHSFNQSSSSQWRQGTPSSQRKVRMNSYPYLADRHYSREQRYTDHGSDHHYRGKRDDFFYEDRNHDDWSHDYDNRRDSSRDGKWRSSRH
UniProt O95858: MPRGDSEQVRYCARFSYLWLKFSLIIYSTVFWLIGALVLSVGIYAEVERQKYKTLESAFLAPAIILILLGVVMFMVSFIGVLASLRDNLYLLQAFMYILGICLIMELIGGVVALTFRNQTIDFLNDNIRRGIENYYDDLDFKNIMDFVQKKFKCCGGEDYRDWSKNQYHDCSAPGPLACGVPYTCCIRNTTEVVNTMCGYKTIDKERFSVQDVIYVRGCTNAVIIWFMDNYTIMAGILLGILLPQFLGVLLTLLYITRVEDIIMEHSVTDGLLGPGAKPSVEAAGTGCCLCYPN
UniProt P34949: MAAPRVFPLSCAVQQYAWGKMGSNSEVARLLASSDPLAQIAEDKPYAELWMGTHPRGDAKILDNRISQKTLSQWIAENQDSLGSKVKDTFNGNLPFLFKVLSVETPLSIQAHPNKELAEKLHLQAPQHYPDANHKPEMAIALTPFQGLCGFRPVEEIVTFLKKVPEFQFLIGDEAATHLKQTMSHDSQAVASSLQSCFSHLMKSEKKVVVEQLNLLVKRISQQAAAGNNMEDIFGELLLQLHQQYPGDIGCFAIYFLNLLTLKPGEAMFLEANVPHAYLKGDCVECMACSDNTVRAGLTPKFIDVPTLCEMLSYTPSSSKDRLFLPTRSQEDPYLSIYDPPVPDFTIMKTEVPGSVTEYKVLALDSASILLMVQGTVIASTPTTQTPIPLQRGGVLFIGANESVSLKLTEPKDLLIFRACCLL
UniProt Q8IUR7, whole entry: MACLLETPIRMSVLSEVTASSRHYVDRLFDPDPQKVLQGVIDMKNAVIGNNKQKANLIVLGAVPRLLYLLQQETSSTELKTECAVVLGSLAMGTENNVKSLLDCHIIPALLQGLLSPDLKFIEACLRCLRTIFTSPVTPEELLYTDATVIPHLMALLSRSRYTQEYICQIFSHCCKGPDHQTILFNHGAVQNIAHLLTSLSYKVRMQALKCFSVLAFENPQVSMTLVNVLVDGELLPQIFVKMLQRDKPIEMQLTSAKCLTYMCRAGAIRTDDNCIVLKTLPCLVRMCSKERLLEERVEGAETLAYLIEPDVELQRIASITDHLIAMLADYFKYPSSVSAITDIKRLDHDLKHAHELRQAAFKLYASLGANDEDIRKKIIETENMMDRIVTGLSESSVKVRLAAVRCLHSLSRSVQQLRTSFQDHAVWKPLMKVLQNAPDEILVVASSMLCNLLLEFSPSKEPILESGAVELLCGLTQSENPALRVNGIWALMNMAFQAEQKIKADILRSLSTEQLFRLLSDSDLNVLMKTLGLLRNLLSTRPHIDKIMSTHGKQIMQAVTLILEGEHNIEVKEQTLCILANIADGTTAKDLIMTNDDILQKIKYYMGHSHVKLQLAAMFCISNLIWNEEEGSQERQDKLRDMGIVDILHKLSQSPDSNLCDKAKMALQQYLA
UniProt Q13485: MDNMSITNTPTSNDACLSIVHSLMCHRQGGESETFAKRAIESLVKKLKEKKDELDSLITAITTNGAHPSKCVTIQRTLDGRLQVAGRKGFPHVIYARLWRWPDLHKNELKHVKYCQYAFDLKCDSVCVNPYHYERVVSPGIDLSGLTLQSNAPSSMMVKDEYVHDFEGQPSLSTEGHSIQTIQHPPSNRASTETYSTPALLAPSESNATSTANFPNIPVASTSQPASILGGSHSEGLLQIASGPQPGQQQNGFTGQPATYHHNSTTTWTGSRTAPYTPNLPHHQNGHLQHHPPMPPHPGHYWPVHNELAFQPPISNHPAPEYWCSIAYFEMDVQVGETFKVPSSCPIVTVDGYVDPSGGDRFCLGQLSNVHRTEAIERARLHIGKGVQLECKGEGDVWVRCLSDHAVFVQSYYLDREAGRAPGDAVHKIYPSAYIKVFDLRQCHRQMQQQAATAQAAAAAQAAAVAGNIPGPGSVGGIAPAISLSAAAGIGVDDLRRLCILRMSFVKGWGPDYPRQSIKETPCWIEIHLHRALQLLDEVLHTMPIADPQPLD
UniProt P49848, whole entry: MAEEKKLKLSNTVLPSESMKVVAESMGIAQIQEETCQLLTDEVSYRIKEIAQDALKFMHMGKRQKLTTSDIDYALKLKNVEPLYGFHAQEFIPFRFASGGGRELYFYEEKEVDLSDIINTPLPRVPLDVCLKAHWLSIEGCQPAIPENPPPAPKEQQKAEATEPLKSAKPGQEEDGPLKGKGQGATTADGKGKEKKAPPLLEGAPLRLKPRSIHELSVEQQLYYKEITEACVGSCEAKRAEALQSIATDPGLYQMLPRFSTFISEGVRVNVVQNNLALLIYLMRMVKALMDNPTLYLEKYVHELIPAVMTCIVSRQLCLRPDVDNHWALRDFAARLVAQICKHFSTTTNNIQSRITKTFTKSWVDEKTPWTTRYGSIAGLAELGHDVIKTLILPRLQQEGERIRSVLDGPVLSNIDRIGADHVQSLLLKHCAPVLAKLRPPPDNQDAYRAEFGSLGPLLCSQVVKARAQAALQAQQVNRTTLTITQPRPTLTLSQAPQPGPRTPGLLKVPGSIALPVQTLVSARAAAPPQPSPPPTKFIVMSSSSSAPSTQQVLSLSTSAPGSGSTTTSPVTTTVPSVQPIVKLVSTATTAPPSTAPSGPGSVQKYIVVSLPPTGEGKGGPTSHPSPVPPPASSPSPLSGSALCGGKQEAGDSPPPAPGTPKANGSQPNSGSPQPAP
UniProt O14641: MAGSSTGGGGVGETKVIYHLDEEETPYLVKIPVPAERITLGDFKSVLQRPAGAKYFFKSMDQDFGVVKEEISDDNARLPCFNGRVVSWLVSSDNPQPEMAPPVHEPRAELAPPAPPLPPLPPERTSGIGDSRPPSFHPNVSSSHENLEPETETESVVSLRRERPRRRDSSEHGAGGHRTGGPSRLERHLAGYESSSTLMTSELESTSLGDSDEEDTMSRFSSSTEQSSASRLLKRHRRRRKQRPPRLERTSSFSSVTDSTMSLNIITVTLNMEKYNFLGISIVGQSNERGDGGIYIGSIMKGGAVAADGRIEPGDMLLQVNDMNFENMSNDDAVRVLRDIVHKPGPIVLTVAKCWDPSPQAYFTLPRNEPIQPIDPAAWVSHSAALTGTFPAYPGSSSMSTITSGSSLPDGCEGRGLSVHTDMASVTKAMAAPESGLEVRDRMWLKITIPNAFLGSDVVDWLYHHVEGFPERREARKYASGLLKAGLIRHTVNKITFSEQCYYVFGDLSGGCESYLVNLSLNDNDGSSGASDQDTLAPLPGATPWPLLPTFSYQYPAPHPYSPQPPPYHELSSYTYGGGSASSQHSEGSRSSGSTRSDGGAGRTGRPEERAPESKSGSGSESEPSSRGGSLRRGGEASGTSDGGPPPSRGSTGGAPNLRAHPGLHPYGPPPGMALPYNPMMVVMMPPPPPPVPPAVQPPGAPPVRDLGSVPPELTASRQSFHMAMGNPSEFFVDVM

Among the data in the supplement of paper PMC6411743 are NP40-soluble protein abundance values, retold here.

Compound in this experiment: Nc1ncnc2c1ncn2[C@@H]1O[C@H](COP(=O)(O)OP(=O)(O)NP(=O)(O)O)[C@@H](O)[C@H]1O [adenylyl imidodiphosphate]
As to the kind of experiment: NP40-soluble protein abundance relative to vehicle (solubility fold change) (ratio); higher = more soluble protein in presence of AMP-PNP. The method, boiled down:
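Jurkat crude lysate prepared with a Dounce homogeniser was treated at eight concentrations spanning 0.1 to 10 mM, 10 min at room temperature then 3 min at 37 °C. Solubilisation with 0.8% NP40 and benzonase and ultracentrifugation preceded TMT labelling of the supernatant for LC-MS/MS. Fold change against the detergent-processed vehicle was determined per replicate from vsn-normalised intensities, across three independent experiments.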

As to “J3KNN3 and related entries (UniProt P15735)”, the NP40-soluble protein abundance runs as follows: (concentration: 0.1mM) 1.057 ± 0.0059; (concentration: 0.5mM) 1.02 ± 0.087.

As to “H7C1J8 and related entries (UniProt P51991)”, the NP40-soluble protein abundance was determined as 1.09 ± 0.11 (concentration: 0.1mM) and 1.11 ± 0.087 (concentration: 0.5mM).

As for “H7BXC7 and related entries (UniProt Q9H7P9)”, the NP40-soluble protein abundance reads like this: (concentration: 0.1mM) 1.03 ± 0.025; (concentration: 0.5mM) 1.003 ± 0.0097.

On to “H0YC40 and related entries (UniProt Q08722)”, for which the NP40-soluble protein abundance is, setting by setting: (concentration: 0.1mM) 0.967 ± 0.019; (concentration: 0.5mM) 1.01 ± 0.026.

As for “J3KPD3 and related entries (UniProt Q9Y580)”, the NP40-soluble protein abundance (concentration: 0.1mM) was 0.961 ± 0.018 and the NP40-soluble protein abundance (concentration: 0.5mM) was 0.979 ± 0.027.

With “H7C285 and related entries (UniProt O95858)”, the NP40-soluble protein abundance is, setting by setting: (concentration: 0.1mM) 0.975 ± 0.012; (concentration: 0.5mM) 0.978 ± 0.033.

As for “H3BPB8 and related entries (UniProt P34949)”, the NP40-soluble protein abundance came to 1.01 ± 0.013 (concentration: 0.1mM) and 1.02 ± 0.018 (concentration: 0.5mM).

“G5E9V6 and related entries (UniProt Q8IUR7)”: the NP40-soluble protein abundance was 0.997 ± 0.012 (concentration: 0.1mM) and 0.983 ± 0.045 (concentration: 0.5mM).

Turning to “K7EIU8 and related entries (UniProt Q13485)”, the NP40-soluble protein abundance (concentration: 0.1mM) worked out at 1.03 ± 0.052 and the NP40-soluble protein abundance (concentration: 0.5mM) is 1.01 ± 0.05.

As to “J3KR72 and related entries (UniProt P49848)”, the NP40-soluble protein abundance is 1.01 ± 0.032 (concentration: 0.1mM) and 1.06 ± 0.042 (concentration: 0.5mM).

Consider “I3L2N2 and related entries (UniProt O14641)”, for which the NP40-soluble protein abundance is 0.982 ± 0.043 (concentration: 0.1mM) and 0.999 ± 0.068 (concentration: 0.5mM).
